This is one part of the list.
Assays:
Experiment in all cases: glycan array binding signal (z-score within array); higher = stronger binding
Details in all cases: glycan notation: IUPAC condensed, linker removed
[1] = target: Gal(b1-3)GalNAc(b1-3)Gal(a1-4)Gal(b1-4)Glc
Summary of the method: (§1)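 Glycan array data came from 3228 arrays in the Consortium for Functional Glycomics database, and only arrays with an available protein sequence were kept. Glycan names were put into IUPAC-condensed notation, and columns mapping to the same glycan were averaged. The binding signal is a within-array Z-score, averaged across arrays of one protein sequence run at different concentrations or buffers and across linkers. A negative Z-score can be read as non-binding.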

[2] = target: Gal(b1-3)GalNAc(b1-4)Gal(b1-4)Glc
Summary of the method: as §1

[3] = target: Gal(b1-3)GalNAc(b1-4)[Neu5Ac(a2-3)]Gal(b1-4)Glc
Summary of the method: as §1

Gal(b1-3)GlcNAc = target: Gal(b1-3)GlcNAc
Summary of the method: as §1

[4] = target: Gal(b1-3)GlcNAc(a1-3)Gal(b1-4)GlcNAc
Summary of the method: as §1

[5] = target: Gal(b1-3)GlcNAc(a1-6)Gal(b1-4)GlcNAc
Summary of the method: as §1

Gal(b1-3)GlcNAc(b1-2)Man = target: Gal(b1-3)GlcNAc(b1-2)Man
Summary of the method: as §1

[6] = target: Gal(b1-3)GlcNAc(b1-2)Man(a1-3)[Gal(b1-3)GlcNAc(b1-2)Man(a1-6)]Man(b1-4)GlcNAc(b1-4)GlcNAc
Summary of the method: as §1

[7] = target: Gal(b1-3)GlcNAc(b1-2)Man(a1-3)[Gal(b1-3)GlcNAc(b1-2)Man(a1-6)]Man(b1-4)GlcNAc(b1-4)[Fuc(a1-6)]GlcNAc
Summary of the method: as §1

[8] = target: Gal(b1-3)GlcNAc(b1-2)Man(a1-3)[GlcNAc(b1-4)][Gal(b1-3)GlcNAc(b1-2)Man(a1-6)]Man(b1-4)GlcNAc(b1-4)GlcNAc
Summary of the method: as §1

[9] = target: Gal(b1-3)GlcNAc(b1-2)[Gal(b1-3)GlcNAc(b1-6)]Man(a1-6)[Gal(b1-3)GlcNAc(b1-2)Man(a1-3)]Man(b1-4)GlcNAc(b1-4)GlcNAc
Summary of the method: as §1

[10] = target: Gal(b1-3)GlcNAc(b1-3)Gal(b1-3)GlcNAc
Summary of the method: as §1

[11] = target: Gal(b1-3)GlcNAc(b1-3)Gal(b1-4)Glc
Summary of the method: as §1

[12] = target: Gal(b1-3)GlcNAc(b1-3)Gal(b1-4)GlcNAc
Summary of the method: as §1

[13] = target: Gal(b1-3)GlcNAc(b1-3)Gal(b1-4)GlcNAc(b1-2)Man(a1-3)[Gal(b1-3)GlcNAc(b1-3)Gal(b1-4)GlcNAc(b1-2)Man(a1-6)]Man(b1-4)GlcNAc(b1-4)GlcNAc
Summary of the method: as §1

[14] = target: Gal(b1-3)GlcNAc(b1-3)Gal(b1-4)GlcNAc(b1-2)[Gal(b1-3)GlcNAc(b1-3)Gal(b1-4)GlcNAc(b1-6)]Man(a1-6)[Gal(b1-3)GlcNAc(b1-3)Gal(b1-4)GlcNAc(b1-2)Man(a1-3)]Man(b1-4)GlcNAc(b1-4)[Fuc(a1-6)]GlcNAc
Summary of the method: as §1

[15] = target: Gal(b1-3)GlcNAc(b1-3)Gal(b1-4)GlcNAc(b1-3)Gal(b1-4)GlcNAc(b1-2)[Gal(b1-3)GlcNAc(b1-3)Gal(b1-4)GlcNAc(b1-3)Gal(b1-4)GlcNAc(b1-6)]Man(a1-6)[Gal(b1-3)GlcNAc(b1-3)Gal(b1-4)GlcNAc(b1-3)Gal(b1-4)GlcNAc(b1-2)Man(a1-3)]Man(b1-4)GlcNAc(b1-4)[Fuc(a1-6)]GlcNAc
Summary of the method: as §1

[16] = target: Gal(b1-3)GlcNAc(b1-3)Gal(b1-4)GlcNAc(b1-6)[Gal(b1-3)GlcNAc(b1-3)]Gal(b1-4)Glc
Summary of the method: as §1

[17] = target: Gal(b1-3)GlcNAc(b1-3)Gal(b1-4)[Fuc(a1-3)]GlcNAc
Summary of the method: as §1

[18] = target: Gal(b1-3)GlcNAc(b1-3)Gal(b1-4)[Fuc(a1-3)]GlcNAc(b1-6)[Gal(b1-3)GlcNAc(b1-3)]Gal(b1-4)Glc
Summary of the method: as §1

[19] = target: Gal(b1-3)GlcNAc(b1-3)GalNAc
Summary of the method: as §1

[20] = target: Gal(b1-3)GlcNAc(b1-6)Gal(b1-4)GlcNAc
Summary of the method: as §1

[21] = target: Gal(b1-3)GlcNAc(b1-6)GalNAc
Summary of the method: as §1

[22] = target: Gal(b1-3)GlcNAc(b1-6)[Gal(b1-3)]GalNAc
Summary of the method: as §1

Gal(b1-3)GlcNAc6S = target: Gal(b1-3)GlcNAc6S
Summary of the method: as §1

[23] = target: Gal(b1-3)[Fuc(a1-4)]GlcNAc
Summary of the method: as §1

[24] = target: Gal(b1-3)[Fuc(a1-4)]GlcNAc(b1-2)Man
Summary of the method: as §1

[25] = target: Gal(b1-3)[Fuc(a1-4)]GlcNAc(b1-2)Man(a1-3)[Gal(b1-3)[Fuc(a1-4)]GlcNAc(b1-2)Man(a1-6)]Man(b1-4)GlcNAc(b1-4)[Fuc(a1-6)]GlcNAc
Summary of the method: as §1

[26] = target: Gal(b1-3)[Fuc(a1-4)]GlcNAc(b1-3)Gal(b1-3)[Fuc(a1-4)]GlcNAc
Summary of the method: as §1

[27] = target: Gal(b1-3)[Fuc(a1-4)]GlcNAc(b1-3)Gal(b1-4)[Fuc(a1-3)]GlcNAc
Summary of the method: as §1

[28] = target: Gal(b1-3)[Fuc(a1-4)]GlcNAc(b1-6)GalNAc
Summary of the method: as §1

[29] = target: Gal(b1-3)[GlcNAc(b1-6)]GalNAc
Summary of the method: as §1

[30] = target: Gal(b1-3)[Neu5Ac(a2-6)]GalNAc
Summary of the method: as §1

[31] = target: Gal(b1-3)[Neu5Ac(a2-6)]GlcNAc(b1-4)Gal(b1-4)Glc
Summary of the method: as §1

[32] = target: Gal(b1-3)[Neu5Ac(b2-6)]GalNAc
Summary of the method: as §1

Gal(b1-4)Gal = target: Gal(b1-4)Gal
Summary of the method: as §1

[33] = target: Gal(b1-4)GalNAc(a1-3)[Fuc(a1-2)]Gal(b1-4)GlcNAc
Summary of the method: as §1

[34] = target: Gal(b1-4)GalNAc(b1-3)[Fuc(a1-2)]Gal(b1-4)GlcNAc
Summary of the method: as §1

B1: RobpsCRA (Robinia pseudoacacia) (protein)
chain: IKGGYWYSGSGLAVSDINPSHFTHLFCAFADLDPNTNKLTISSSNAAAFSTFTQTVRAKNPSVKTLLSIGGGGGRALAAVFANMASQASRRKSFIDSSIQLARRNNFHGLDLDWEYPSSDIDKTNFASLIREWRAAVATESSTSGTPALLLSAAVGGSDQITPLKYYPGEAIANNLDWVNVMTYDLYTSDSYPTLTQPPAPLFYPRGIFSADEGITKWIQSGVPESKLALGLPFYGFKWRLSDPNNHGLFAPATQGLGAVKYKDIVNTGGQVEFDSTYVTNYCFKGTDWYGYDDTQSISAKVAYAKQRGLFGYFAWHIEQDSNWALS
glycan array binding signal (z-score) [1]: 0.121 | glycan array binding signal (z-score) [2]: -0.501 | glycan array binding signal (z-score) [3]: -0.212 | glycan array binding signal (z-score) (Gal(b1-3)GlcNAc): -0.11 | glycan array binding signal (z-score) [4]: -0.255 | glycan array binding signal (z-score) [5]: -0.067 | glycan array binding signal (z-score) (Gal(b1-3)GlcNAc(b1-2)Man): -0.002 | glycan array binding signal (z-score) [6]: 0.411 | glycan array binding signal (z-score) [7]: -0.414 | glycan array binding signal (z-score) [8]: -0.59 | glycan array binding signal (z-score) [9]: -0.739 | glycan array binding signal (z-score) [10]: -0.36 | glycan array binding signal (z-score) [11]: -0.356 | glycan array binding signal (z-score) [12]: -0.629 | glycan array binding signal (z-score) [13]: -0.122 | glycan array binding signal (z-score) [14]: 1.19 | glycan array binding signal (z-score) [15]: 0.989 | glycan array binding signal (z-score) [16]: -0.444 | glycan array binding signal (z-score) [17]: 0.058 | glycan array binding signal (z-score) [18]: 0.137 | glycan array binding signal (z-score) [19]: -0.893 | glycan array binding signal (z-score) [20]: 0.201 | glycan array binding signal (z-score) [21]: -0.441 | glycan array binding signal (z-score) [22]: -0.385 | glycan array binding signal (z-score) (Gal(b1-3)GlcNAc6S): -0.051 | glycan array binding signal (z-score) [23]: -0.158 | glycan array binding signal (z-score) [24]: -0.286 | glycan array binding signal (z-score) [25]: -0.176 | glycan array binding signal (z-score) [26]: -0.405 | glycan array binding signal (z-score) [27]: -0.719 | glycan array binding signal (z-score) [28]: 0.542 | glycan array binding signal (z-score) [29]: -0.77 | glycan array binding signal (z-score) [30]: 0.054 | glycan array binding signal (z-score) [31]: -0.255 | glycan array binding signal (z-score) [32]: 0.375 | glycan array binding signal (z-score) (Gal(b1-4)Gal): -0.47 | glycan array binding signal (z-score) [33]: -0.048 | glycan array binding signal (z-score) [34]: -0.51

— the supplement of paper PMC8728848
